Laboratory results as given in PubChem BioAssay AID504444 (National Center for Advancing Translational Sciences (NCATS), 2011).
In all, about 360,000 compounds went through this assay and about 7,500 (2.1%) were called active. Inconclusive results, whose numbers are uncertain, are shown with a selection of clear calls. Calls come from the whole dose curve; as a rule, active = well fitted inhibition curve with a large enough effect; inconclusive = small, poorly fitted or top-dose-only effect, or effect the other way; inactive = flat fitted curve, though single readings scatter. Potencies beside an inconclusive call are fits to weak or partial responses and may not hold up.

experiment: Nrf2 qHTS screen for inhibitors; details: A549 ARE-Fluc reporter, luciferase luminescence, 18-24 h; series mostly up to 46 µM; note: nearly all actives have a fitted effect of over 60% in size
In short: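 Nrf2 activity is the BugLite luminescence, read 15 min after reagent at room temperature, following CellTiter-Fluor cytotoxicity readout (30 min, 37C). Compound titrations were applied for 18-24 h to 5000 A549 ARE_Fluc cells/well in 5% FBS OPTI-MEM.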
Potency is the fitted concentration of half-maximal effect.

| SMILES | Potency |
| --- | --- |
| Cc1ccc(NC(=O)c2c(C)oc3ccc(O)c(CN4CCCCCC4)c23)c(C)c1 | inactive |
| O=c1c2ccccc2nc2oc3ccccc3n12 | inconclusive: 10.3 µM [activator, partial curve] |
| NC1=C(c2ccc([N+](=O)[O-])cc2)C(=O)CO1 | inactive |
| COc1ccc(C(=O)/C=C/C(=O)N(CC(=O)NC2CCCCC2)Cc2cccs2)c(O)c1 | inconclusive: 29.1 µM [falling, single point] |
| CC(C)OCCCn1c(=S)[nH]c2ccc(N3CCOCC3)cc2c1=O | inconclusive: 14.6 µM [falling, single point] |
| N#CCSc1nnc(COc2cccc3ccccc23)n1-c1ccccc1 | inconclusive: 29.1 µM [falling, single point] |
| COc1ccc(N=CC2=C(O)c3ccccc3C2=O)cc1 | inconclusive: 1.16 µM [activator, partial curve, poor fit] |
| Cc1ccc(-c2nc(CS(=O)CC(=O)NCCN3CCCC3)c(C)o2)cc1 (configuration not stated) | inconclusive: 18.4 µM [activator, single point] |
| CS(=O)(=O)N1CCc2cc(C(=O)Nc3ccccc3Cl)ccc21 | inconclusive: 3.66 µM [activator, full curve, poor fit] |
| Cc1ccc(S(=O)(=O)N(C)C)cc1NC(=O)C(C)N(C)CCOc1ccc(Cl)cc1 (configuration not stated) | inconclusive: 20.6 µM [falling, single point] |
| COc1cccc(Cn2cccc(NC(=O)NC3CCCCC3)c2=O)c1 | inactive |
| CCCC[C@@H]1C[C@H]1[C@@H](NC(=O)c1cccs1)c1ccc(Cl)cc1 | inconclusive: 20.6 µM [falling, single point] |
| CCOC(=O)c1cc(NC(=O)Nc2ccccc2Cl)c(C)nc1C | inconclusive: 13 µM [falling, partial curve] |
| CCOC(=O)C1=C(C)N(C[C@@H]2CC[C@@H](Cc3ccc(-c4ccccc4)cc3)O2)C(=O)NC1c1ccc(Cl)cc1 (some centres not stated) | inconclusive: 29.1 µM [falling, single point] |
| Cc1ccc(-c2csc(NCCc3nc4cc(Cl)c(Cl)cc4n3CCCO)n2)cc1 | inconclusive: 9.2 µM [activator, partial curve, poor fit] |
| CC(=O)c1ccc(S(=O)(=O)NCc2ccc(C(=O)N(C)CC(=O)Nc3cccc(F)c3)cc2)cc1 | inconclusive: 29.1 µM [falling, single point] |
| CC1CCCN(C(=O)CSc2nnc3ccccn23)C1 (configuration not stated) | inconclusive: 8.2 µM [activator, partial curve] |
| COc1cc2c(cc1OC)CN(C(=O)/C=C/c1ccc([N+](=O)[O-])cc1)CC2 | inactive |
| CCOc1ccc(NCC(=O)c2ccc(C)cc2)cc1 | inconclusive: 29.1 µM [falling, partial curve, poor fit] |
| COc1cccc(-c2ccc3c(N)c(C(=O)c4ccc(Cl)cc4)sc3n2)c1 | inactive |
| N=c1c2c(ncn1Cc1ccco1)Oc1cc(O)ccc1C2c1ccccc1 (configuration not stated) | inconclusive: 29.1 µM [falling, single point] |
| Cc1c(C(=O)Nc2ccc3c(c2)CCC3)cccc1[N+](=O)[O-] | inconclusive: 7.31 µM [activator, partial curve] |
| O=C(Nc1nc2n(n1)C(c1ccccc1)C=C(c1ccccc1)N2)c1ccc(Cl)c([N+](=O)[O-])c1 (configuration not stated) | inconclusive: 18.4 µM [activator, single point] |

| SMILES | Potency |
| --- | --- |
| CCOC(=O)c1c(C)nc2sc(C(=O)Nc3ccc(C(C)=O)cc3)c(N)c2c1-c1ccc(OC)cc1 | inconclusive: 23.1 µM [falling, single point] |
| COc1ccc(CCNc2nc(-c3cccnc3)cs2)cc1OC | active: 23.1 µM |
| CSc1nc(-c2ccccc2)nc(C(Cl)Cl)n1 | active: 23.1 µM |
| COc1cccc(C(=O)N2c3cc(C)ccc3C(C)(c3ccccc3)CC2(C)C)c1 (configuration not stated) | inconclusive: 29.1 µM [falling, single point] |
| CC1CN(S(=O)(=O)c2csc(C(=O)Nc3ccccc3)c2)CC(C)O1 (configuration not stated) | inconclusive: 11.6 µM [falling, partial curve, poor fit] |
| S=C(NCc1ccc2c(c1)OCO2)NC1CCN(Cc2ccccc2)CC1 | inconclusive: 20.6 µM [falling, single point] |
| CCCn1c(N)c(C(=O)CSc2nnc(-c3cccs3)n2C2CC2)c(=O)[nH]c1=O | inactive |
| N#C/C(=C\c1ccc(Cl)cc1)c1nc(-c2cc3ccccc3oc2=O)cs1 | inactive |
| CCn1c(CC(=O)Nc2ccccc2)nnc1SCC(=O)Nc1nncs1 | inconclusive: 23.1 µM [activator, partial curve] |
| CCOC(=O)c1sc2cccc(F)c2c1S(=O)(=O)N1CCN(c2cccc(Cl)c2)CC1 | inactive |
| COc1cc(C(=S)N2CCCCC2)ccc1OCC(=O)Nc1ccccc1Cl | inconclusive: 18.4 µM [falling, single point] |
| O=C(c1cncc(Br)c1)N1CCN(c2ccc(N3CCOCC3)nn2)CC1 | inactive |
| Cc1cc(C)n2c(=O)c3ccc(Cl)cc3nc2c1C#N | inactive |
| CN(C)c1cccc(C(=O)OCCCC(=O)c2ccc(F)cc2)c1 | inactive |
| N#CCCN(Cc1cccnc1)S(=O)(=O)c1ccc2ccccc2c1 | inactive |
| COc1ccc(CCNC(=O)c2ccc(CNc3nc(=S)[nH]c4ccccc34)cc2)cc1OC | inconclusive: 16.4 µM [falling, partial curve] |
| CCc1ccc(NC(=S)NCC2CCCN2CC)cc1 (configuration not stated) | inconclusive: 13 µM [activator, partial curve, poor fit] |
| CC(C[N+](C)(C)C)OC(=O)C1(c2ccccc2)CCCC1 (configuration not stated) | inconclusive: 13 µM [falling, partial curve] |
| CC(C)CC(=O)Nc1cc2nn(-c3ccccc3)nc2cc1Cl | inconclusive: 14.6 µM [activator, partial curve] |
| CCCn1c2ccccc2c2cnn(CC(=O)N3CCC(C)CC3)c(=O)c21 | inactive |
| Cn1c(-c2ccc(Br)o2)nc2cc(Br)ccc21 | inconclusive: 9.2 µM [activator, partial curve] |
| C[C@@H](NC(=O)c1nc[nH]c1C(=O)NCCCCCNC(=O)OC(C)(C)C)c1ccccc1 | inconclusive: 18.4 µM [falling, single point] |
| Cc1csc(NC(=O)c2ccc(C)c([N+](=O)[O-])c2)n1 | inconclusive: 2.06 µM [activator, partial curve] |

| SMILES | Potency |
| --- | --- |
| CCc1ccc(CNC(=O)c2cnc3sc4cc(OC)ccc4n3c2=O)cc1 | inactive |
| O=C(Nc1ccc([N+](=O)[O-])cc1)c1cc2ccccc2nc1Cl | inconclusive: 23.1 µM [falling, single point] |
| CCOC(=O)COc1ccc2c(c1)C(=O)CC(C)(c1cccnc1)O2 (configuration not stated) | inconclusive: 32.6 µM [activator, partial curve, poor fit] |
| COc1cc2c(cc1CN1CCN(C(=O)c3cc(OC)c(OC)c(OC)c3)CC1)OCO2 | inconclusive: 29.1 µM [falling, single point] |
| COC(=O)C1=C(C)N(Cc2ccccc2)C(=NCc2cccc(C(F)(F)F)c2)N[C@H]1c1cccc(F)c1 | inactive |
| CCC(C(=O)OCC(=O)Nc1ccc(Cl)c(S(=O)(=O)N(C)C)c1)c1ccccc1 (configuration not stated) | inconclusive: 20.6 µM [falling, single point] |
| CCOC(=O)C1(CCc2ccccc2)CCN(C(=O)c2cc(C)nc(C)n2)CC1 | inconclusive: 29.1 µM [activator, partial curve, poor fit] |
| O=C(COc1ccc(Br)cc1)Nc1ccc(CN2CCOCC2)cc1 | active: 23.1 µM |
| CC(C)C[C@H](NC(=O)[C@@H](Cc1ccccc1)n1c(=O)[nH]c2ccccc2c1=O)C(=O)N[C@@H](Cc1ccccc1)C(=O)O | inactive |
| CC(=O)Nc1ccc(-c2nc3ccc(NC(C)=O)cc3o2)cc1 | inconclusive: 4.11 µM [activator, full curve] |
| Cc1ccc(/C=C/c2ccc(N(C)C)cc2)[n+](C)c1 | active: 4.11 µM |
| Cc1cc(-c2ccccc2)nc2cc(C(=O)N(Cc3ccccc3)Cc3ccccc3)nn12 | inconclusive: 29.1 µM [falling, single point] |
| O=C(NCc1ccccc1F)c1ccc(CN2CC(=O)N3CCCCC3C2=O)cc1 (configuration not stated) | inconclusive: 29.1 µM [activator, single point] |
| CCOC(=O)c1sc(NC(=O)Nc2ccc(F)cc2)nc1C | inconclusive: 1.3 µM [activator, partial curve] |
| CC(C)c1cc(C(=O)N2CCCC(Nc3ccc(F)c(F)c3)C2)nc(N)n1 (configuration not stated) | inconclusive: 0.0731 µM [falling, full curve, poor fit] |
| O=C(CCNC(=O)c1ccc(Br)cc1)Nc1cccc(S(=O)(=O)N2CCCCC2)c1 | inconclusive: 18.4 µM [falling, single point] |
| CCCCC(=O)Nc1ccc(C(=O)Nc2ccc(S(=O)(=O)N3CCCC3)cc2)cc1 | inconclusive: 4.61 µM [falling, full curve, poor fit] |
| Cn1nc(-c2ccc(C(=O)Nc3ccc(F)cc3)cc2)c2ccccc2c1=O | active: 18.4 µM |
| Oc1ccc(C[C@H]2CNC(=S)N2CCc2cc(C(F)(F)F)cc(C(F)(F)F)c2)cc1 | inconclusive: 16.4 µM [falling, partial curve, poor fit] |
| C=Cc1ccc(Cn2nc(-c3ccc(C)c(S(=O)(=O)N(CC)CC)c3)ccc2=O)cc1 | inactive |
| Cc1ccc(S(=O)(=O)N2[C@@H](c3ccc(Br)cc3)C(C(=O)O)=CC[C@H]2c2cccc(Cl)c2)cc1 | inconclusive: 18.4 µM [falling, partial curve, poor fit] |

A different layout for some results above.
SMILES | Potency
O=C(CCNC(=O)c1ccc(Br)cc1)Nc1cccc(S(=O)(=O)N2CCCCC2)c1 | inconclusive: 18.4 µM [falling, single point]
CCCCC(=O)Nc1ccc(C(=O)Nc2ccc(S(=O)(=O)N3CCCC3)cc2)cc1 | inconclusive: 4.61 µM [falling, full curve, poor fit]
Cn1nc(-c2ccc(C(=O)Nc3ccc(F)cc3)cc2)c2ccccc2c1=O | active: 18.4 µM
Oc1ccc(C[C@H]2CNC(=S)N2CCc2cc(C(F)(F)F)cc(C(F)(F)F)c2)cc1 | inconclusive: 16.4 µM [falling, partial curve, poor fit]
C=Cc1ccc(Cn2nc(-c3ccc(C)c(S(=O)(=O)N(CC)CC)c3)ccc2=O)cc1 | inactive
Cc1ccc(S(=O)(=O)N2[C@@H](c3ccc(Br)cc3)C(C(=O)O)=CC[C@H]2c2cccc(Cl)c2)cc1 | inconclusive: 18.4 µM [falling, partial curve, poor fit]
